Measurements: the supplement of paper PMC10849652
This is one part of the list.

Amino acid sequences for entries named in this document (tags omitted). A change or cut given only in a name is not applied to a line headed by its entry.
UniProt Q9Y5Y0: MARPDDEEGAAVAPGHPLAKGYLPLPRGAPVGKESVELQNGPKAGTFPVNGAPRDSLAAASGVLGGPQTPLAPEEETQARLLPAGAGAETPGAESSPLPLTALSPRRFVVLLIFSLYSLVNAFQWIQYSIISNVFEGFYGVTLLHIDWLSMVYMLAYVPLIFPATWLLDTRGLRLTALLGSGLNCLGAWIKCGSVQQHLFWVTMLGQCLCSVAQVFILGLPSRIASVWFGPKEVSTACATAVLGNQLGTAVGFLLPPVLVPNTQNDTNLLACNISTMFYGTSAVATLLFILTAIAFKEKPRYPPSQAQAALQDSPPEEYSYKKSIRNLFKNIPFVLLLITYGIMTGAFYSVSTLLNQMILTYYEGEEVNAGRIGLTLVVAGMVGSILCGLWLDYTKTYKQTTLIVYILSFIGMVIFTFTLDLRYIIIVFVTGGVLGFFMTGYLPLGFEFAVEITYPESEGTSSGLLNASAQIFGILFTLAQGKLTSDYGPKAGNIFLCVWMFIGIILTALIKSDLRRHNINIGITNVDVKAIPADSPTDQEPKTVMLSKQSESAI
UniProt Q96ME1: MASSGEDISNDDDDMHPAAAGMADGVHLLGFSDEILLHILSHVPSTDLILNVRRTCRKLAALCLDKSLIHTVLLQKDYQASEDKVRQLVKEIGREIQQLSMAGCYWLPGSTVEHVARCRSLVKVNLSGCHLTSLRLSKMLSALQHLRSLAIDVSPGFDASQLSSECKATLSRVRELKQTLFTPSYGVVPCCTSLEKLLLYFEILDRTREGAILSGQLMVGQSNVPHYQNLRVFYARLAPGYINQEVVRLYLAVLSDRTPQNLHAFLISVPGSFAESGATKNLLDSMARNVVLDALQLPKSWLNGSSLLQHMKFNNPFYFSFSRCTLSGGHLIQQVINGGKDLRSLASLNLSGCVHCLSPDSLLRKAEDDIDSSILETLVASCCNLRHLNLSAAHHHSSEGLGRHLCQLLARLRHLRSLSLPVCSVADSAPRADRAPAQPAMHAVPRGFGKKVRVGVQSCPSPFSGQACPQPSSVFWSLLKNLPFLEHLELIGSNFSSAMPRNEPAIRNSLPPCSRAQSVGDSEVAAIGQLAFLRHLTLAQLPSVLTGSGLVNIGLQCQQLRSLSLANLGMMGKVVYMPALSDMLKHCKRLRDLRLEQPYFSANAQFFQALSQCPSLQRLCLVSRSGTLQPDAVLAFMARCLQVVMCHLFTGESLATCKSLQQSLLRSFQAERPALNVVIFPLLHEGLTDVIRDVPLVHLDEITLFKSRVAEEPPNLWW
UniProt P35916, whole entry, looked up: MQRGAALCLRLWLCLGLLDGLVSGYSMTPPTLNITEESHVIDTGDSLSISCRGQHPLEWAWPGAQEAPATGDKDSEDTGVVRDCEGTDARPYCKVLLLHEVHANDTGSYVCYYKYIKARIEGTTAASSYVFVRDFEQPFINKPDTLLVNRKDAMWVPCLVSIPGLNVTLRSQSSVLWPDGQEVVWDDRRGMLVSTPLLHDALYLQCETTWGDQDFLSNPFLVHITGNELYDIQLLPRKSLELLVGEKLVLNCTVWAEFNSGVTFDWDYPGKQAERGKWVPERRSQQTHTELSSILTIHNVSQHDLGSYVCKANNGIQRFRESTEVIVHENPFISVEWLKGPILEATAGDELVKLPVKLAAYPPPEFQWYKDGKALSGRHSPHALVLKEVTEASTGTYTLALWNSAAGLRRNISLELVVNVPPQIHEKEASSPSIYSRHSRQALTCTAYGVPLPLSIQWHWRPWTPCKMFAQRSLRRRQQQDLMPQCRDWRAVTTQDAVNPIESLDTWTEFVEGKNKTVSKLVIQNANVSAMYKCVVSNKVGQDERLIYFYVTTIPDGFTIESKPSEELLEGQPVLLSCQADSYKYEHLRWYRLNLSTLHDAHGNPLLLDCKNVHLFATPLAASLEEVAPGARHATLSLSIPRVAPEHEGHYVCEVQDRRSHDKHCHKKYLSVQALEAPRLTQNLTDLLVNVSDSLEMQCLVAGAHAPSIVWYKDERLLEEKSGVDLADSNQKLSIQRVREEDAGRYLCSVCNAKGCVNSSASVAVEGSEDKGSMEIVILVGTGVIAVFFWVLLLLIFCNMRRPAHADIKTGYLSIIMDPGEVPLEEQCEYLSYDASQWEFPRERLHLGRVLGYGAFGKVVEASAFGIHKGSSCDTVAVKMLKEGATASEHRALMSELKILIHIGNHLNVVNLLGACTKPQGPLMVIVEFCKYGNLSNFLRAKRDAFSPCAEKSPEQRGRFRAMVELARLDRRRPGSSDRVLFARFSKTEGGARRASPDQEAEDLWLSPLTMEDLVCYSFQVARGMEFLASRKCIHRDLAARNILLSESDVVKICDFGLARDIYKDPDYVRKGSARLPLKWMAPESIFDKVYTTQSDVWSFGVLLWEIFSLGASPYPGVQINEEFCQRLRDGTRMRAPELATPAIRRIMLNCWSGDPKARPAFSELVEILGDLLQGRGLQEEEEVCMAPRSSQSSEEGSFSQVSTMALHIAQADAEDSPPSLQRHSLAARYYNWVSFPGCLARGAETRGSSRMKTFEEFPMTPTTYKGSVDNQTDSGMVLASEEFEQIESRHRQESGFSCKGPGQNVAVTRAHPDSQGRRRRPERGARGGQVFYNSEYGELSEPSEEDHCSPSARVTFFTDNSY
UniProt Q96HJ9: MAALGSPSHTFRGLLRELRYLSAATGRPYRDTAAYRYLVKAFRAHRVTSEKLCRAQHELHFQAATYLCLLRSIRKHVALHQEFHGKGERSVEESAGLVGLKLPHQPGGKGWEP
UniProt Q13643: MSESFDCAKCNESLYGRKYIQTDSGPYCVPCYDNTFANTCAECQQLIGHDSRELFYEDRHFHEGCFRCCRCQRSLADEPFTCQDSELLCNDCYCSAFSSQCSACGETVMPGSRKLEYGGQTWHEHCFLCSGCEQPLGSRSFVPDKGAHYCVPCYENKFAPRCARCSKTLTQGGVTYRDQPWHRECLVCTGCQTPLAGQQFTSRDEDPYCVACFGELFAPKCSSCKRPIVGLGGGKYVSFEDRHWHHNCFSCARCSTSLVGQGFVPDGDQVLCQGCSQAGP
UniProt P07954: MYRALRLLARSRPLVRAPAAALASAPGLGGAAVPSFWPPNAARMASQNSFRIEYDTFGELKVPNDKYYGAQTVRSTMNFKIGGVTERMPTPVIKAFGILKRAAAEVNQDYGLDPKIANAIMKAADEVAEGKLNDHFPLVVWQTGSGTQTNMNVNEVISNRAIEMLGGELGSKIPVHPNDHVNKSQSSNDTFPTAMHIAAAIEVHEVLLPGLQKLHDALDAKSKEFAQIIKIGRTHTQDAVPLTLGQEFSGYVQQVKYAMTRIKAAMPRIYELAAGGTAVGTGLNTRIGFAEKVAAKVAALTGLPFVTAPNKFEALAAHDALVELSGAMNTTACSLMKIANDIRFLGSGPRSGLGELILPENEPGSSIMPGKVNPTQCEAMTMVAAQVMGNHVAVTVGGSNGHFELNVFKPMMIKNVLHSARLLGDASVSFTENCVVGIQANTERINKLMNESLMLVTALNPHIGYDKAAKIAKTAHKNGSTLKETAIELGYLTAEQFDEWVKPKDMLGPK
UniProt O95302: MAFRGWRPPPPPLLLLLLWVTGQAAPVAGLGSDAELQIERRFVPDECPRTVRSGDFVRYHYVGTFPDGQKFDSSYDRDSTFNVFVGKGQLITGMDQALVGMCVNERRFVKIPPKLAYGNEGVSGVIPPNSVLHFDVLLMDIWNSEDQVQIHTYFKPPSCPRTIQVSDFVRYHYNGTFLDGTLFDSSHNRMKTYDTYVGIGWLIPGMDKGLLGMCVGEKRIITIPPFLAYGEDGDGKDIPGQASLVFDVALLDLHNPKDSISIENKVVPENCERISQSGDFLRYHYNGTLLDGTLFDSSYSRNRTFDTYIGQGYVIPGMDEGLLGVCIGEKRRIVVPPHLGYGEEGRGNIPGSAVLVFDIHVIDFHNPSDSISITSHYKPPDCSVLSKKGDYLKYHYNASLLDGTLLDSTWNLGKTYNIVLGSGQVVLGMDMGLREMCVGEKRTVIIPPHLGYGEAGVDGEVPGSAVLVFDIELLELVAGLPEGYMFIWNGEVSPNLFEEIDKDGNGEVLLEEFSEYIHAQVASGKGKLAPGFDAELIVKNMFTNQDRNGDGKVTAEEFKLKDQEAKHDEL
UniProt Q6PIJ6: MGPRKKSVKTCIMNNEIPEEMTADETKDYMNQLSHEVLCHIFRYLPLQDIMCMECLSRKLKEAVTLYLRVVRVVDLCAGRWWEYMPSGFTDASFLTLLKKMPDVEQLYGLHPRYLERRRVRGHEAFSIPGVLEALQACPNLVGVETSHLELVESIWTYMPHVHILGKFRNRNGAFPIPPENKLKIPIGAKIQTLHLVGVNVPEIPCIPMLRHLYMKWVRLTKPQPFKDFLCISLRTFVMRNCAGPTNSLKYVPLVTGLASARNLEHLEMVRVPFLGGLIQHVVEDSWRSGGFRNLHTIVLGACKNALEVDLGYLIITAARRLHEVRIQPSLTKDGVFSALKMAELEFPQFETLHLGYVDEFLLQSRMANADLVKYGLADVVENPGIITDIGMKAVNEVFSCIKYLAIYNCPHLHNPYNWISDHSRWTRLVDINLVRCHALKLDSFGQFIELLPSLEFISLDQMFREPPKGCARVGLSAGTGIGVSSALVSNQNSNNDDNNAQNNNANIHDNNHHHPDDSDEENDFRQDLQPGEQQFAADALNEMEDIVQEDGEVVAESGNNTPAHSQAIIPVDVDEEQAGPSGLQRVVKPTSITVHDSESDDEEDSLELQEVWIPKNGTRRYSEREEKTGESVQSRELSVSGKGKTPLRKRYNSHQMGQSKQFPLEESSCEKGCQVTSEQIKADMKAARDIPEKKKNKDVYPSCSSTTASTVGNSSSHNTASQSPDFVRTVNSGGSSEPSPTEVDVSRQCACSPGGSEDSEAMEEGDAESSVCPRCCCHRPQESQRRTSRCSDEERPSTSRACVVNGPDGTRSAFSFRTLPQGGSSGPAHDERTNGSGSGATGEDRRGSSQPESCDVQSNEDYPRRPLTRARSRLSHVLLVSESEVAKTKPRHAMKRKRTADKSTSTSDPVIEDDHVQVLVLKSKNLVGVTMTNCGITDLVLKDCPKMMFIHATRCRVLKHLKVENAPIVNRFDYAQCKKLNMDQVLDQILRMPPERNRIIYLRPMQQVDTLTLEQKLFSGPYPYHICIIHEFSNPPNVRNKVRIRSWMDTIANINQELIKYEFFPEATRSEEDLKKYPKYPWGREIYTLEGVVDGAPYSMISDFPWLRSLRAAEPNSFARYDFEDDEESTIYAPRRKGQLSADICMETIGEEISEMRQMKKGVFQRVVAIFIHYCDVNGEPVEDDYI
UniProt Q6P4F2: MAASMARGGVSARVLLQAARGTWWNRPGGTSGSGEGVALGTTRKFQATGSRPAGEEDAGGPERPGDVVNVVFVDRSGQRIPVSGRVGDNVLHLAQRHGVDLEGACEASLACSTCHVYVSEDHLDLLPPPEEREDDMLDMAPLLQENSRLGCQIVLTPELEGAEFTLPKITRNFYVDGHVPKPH
UniProt Q8N3Y1: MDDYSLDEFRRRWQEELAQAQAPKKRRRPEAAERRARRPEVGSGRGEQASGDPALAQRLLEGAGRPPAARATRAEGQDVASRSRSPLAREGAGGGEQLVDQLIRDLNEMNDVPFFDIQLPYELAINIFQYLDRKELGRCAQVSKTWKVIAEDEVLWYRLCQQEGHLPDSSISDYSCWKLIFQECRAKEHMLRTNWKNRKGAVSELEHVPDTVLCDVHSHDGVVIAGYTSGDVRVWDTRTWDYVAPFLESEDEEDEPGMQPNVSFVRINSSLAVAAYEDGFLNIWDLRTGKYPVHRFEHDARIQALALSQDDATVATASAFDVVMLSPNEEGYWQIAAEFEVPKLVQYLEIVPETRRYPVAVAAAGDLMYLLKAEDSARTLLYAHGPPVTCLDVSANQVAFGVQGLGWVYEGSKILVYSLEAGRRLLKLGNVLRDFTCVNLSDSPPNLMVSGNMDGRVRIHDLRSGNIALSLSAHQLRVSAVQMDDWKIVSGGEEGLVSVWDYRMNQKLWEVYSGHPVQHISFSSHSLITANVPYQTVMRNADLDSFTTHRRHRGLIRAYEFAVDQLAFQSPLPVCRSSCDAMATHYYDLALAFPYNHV

Experiments:
Assay in all cases: log2 fold change, soluble protein after heating vs DMSO (PISA); higher = thermal stabilisation; K562 lysate, 10 uM; active = over 0.2 and 3.5 SD of the protein, either way, in both replicates (recomputed)
[1] = compound: NCC(=O)Nc1ccc(-n2nc(C(F)(F)F)cc2-c2ccc3c(ccc4ccccc43)c2)cc1
How it was run: (§1)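 K562 pellets were dounce-homogenised in PBS pH 7.4 containing 1 mM MgCl2, and the crude extract, at 1 mg/mL protein, was exposed to 10 μM compound for 30 min. Aliquots were heated for 3 min across 48°C-58°C, pooled, brought to 0.5% NP-40 at 4°C and spun at 21,000xg for 90 min, with the supernatant taken as soluble protein. TMTpro 16plex LC-MS/MS with equalised channel sums quantified that protein. Values are log-two fold changes in thermal stability relative to solvent controls, taken from duplicates.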

vorinostat = compound: O=C(CCCCCCC(=O)Nc1ccccc1)NO [vorinostat]
How it was run: as §1

silmitasertib = compound: O=C(O)c1ccc2c(c1)nc(Nc1cccc(Cl)c1)c1ccncc12 [silmitasertib]
How it was run: as §1

[2] = compound: O=C1NC(=O)C(c2cnc3ccccn23)=C1c1cn2c3c(cc(F)cc13)CN(C(=O)N1CCCCC1)CC2
How it was run: as §1

entospletinib = compound: c1cn2cc(-c3ccc4cn[nH]c4c3)nc(Nc3ccc(N4CCOCC4)cc3)c2n1 [entospletinib]
How it was run: as §1

Measured: log2 fold change

FLVCR1 (UniProt Q9Y5Y0)
inactive: [1] 0.035 | vorinostat 0.107 | silmitasertib -0.025 | [2] 0.066 | entospletinib 0

FGFR1OP (UniProt O95684)
inactive: [1] 0.067 | vorinostat 0.098 | silmitasertib -0.056 | [2] 0.03 | entospletinib -0.003

FLNA (UniProt P21333)
inactive: [1] 0.022 | vorinostat -0.07 | silmitasertib -0.005 | [2] 0.02 | entospletinib 0.017

FLNB isoform 8 (UniProt O75369)
inactive: [1] 0.011 | vorinostat 0.019 | silmitasertib -0.017 | [2] 0.004 | entospletinib 0.035

FBXW2 (UniProt Q9UKT8)
inactive: [1] 0.005 | [2] 0.079

FECH isoform 2 (UniProt P22830)
inactive: [1] -0.185 | vorinostat -0.401 | silmitasertib -0.03 | [2] -0.021 | entospletinib 0.977

FBXL18 isoform 4 (UniProt Q96ME1)
inactive: [1] 0.047 | vorinostat -0.066 | silmitasertib 0.052 | [2] -0.001 | entospletinib 0.002

FBXO6 (UniProt Q9NRD1)
inactive: [1] -0.022 | vorinostat 0.028 | silmitasertib -0.011 | [2] 0.019 | entospletinib -0.001

FBXO22 (UniProt Q8NEZ5)
active: vorinostat -0.477
inactive: [1] 0.014 | silmitasertib -0.022 | [2] -0.018 | entospletinib 0.014

FBXO45 (UniProt P0C2W1)
active: vorinostat -0.367
inactive: [1] -0.013 | silmitasertib 0.127 | [2] 0.021 | entospletinib -0.05

FLT4 (UniProt P35916)
inactive: [1] -0.097 | silmitasertib 0.178 | entospletinib 0.054
active: vorinostat -0.435

FMC1 (UniProt Q96HJ9)
inactive: [1] 0.006 | vorinostat 0.081 | silmitasertib 0.081 | [2] 0.023 | entospletinib -0.01

FHL3 (UniProt Q13643)
inactive: [1] -0.025 | vorinostat 0.107 | silmitasertib 0.028 | [2] 0.005 | entospletinib -0.034

FBL (UniProt P22087)
inactive: [1] 0.058 | vorinostat 0.013 | silmitasertib 0.026 | [2] 0.013 | entospletinib -0.012

FER (UniProt P16591)
inactive: [1] -0.042 | vorinostat 0.128 | silmitasertib -0.213 | [2] -0.098 | entospletinib 0.2

Fetched one by one from the entries so far, 2 records:
FBXL18 isoform 4 (UniProt Q96ME1)
inactive: [1] 0.047 | vorinostat -0.066 | silmitasertib 0.052 | [2] -0.001 | entospletinib 0.002

FMC1 (UniProt Q96HJ9)
inactive: [1] 0.006 | vorinostat 0.081 | silmitasertib 0.081 | [2] 0.023 | entospletinib -0.01

Continued:

FH (UniProt P07954)
inactive: [1] 0.03 | vorinostat 0.032 | silmitasertib -0.01 | [2] -0.011 | entospletinib 0.016

FKBP9 (UniProt O95302)
inactive: [1] -0.016 | vorinostat 0.104 | silmitasertib -0.04 | [2] 0.002 | entospletinib 0.011

FNTB (UniProt P49356)
inactive: [1] 0.03 | vorinostat 0.03 | silmitasertib -0.018 | [2] -0.032 | entospletinib -0.048

FEN1 (UniProt P39748)
inactive: [1] 0.032 | vorinostat 0.001 | silmitasertib -0.045 | [2] 0.019 | entospletinib 0.03

FNIP1 isoform 3 (UniProt Q8TF40)
inactive: [1] 0.02 | vorinostat 0.008 | silmitasertib 0.015 | [2] 0.001 | entospletinib -0.067

FBXO38 (UniProt Q6PIJ6)
inactive: [1] -0.029 | vorinostat -0.393 | silmitasertib 0.34 | [2] -0.159 | entospletinib -0.173

FDX2 (UniProt Q6P4F2)
inactive: [1] -0.03 | vorinostat 0.195 | silmitasertib -0.069 | [2] -0.066 | entospletinib 0.042

FBXW9 (UniProt Q5XUX1)
inactive: [1] -0.031 | vorinostat -0.049 | silmitasertib 0.047 | [2] -0.024 | entospletinib -0.021

FBXO3 (UniProt Q9UK99)
inactive: [1] 0.005 | vorinostat 0.089 | silmitasertib 0.078 | [2] 0.061 | entospletinib -0.015

FKBP8 isoform 2 (UniProt Q14318)
active: vorinostat -0.219
inactive: [1] 0.024 | silmitasertib 0.001 | [2] -0.028 | entospletinib 0.018

FBXW8 (UniProt Q8N3Y1)
inactive: [1] 0.088 | vorinostat 0.117 | silmitasertib -0.189 | entospletinib -0.132

FAT3 isoform 1 (UniProt Q8TDW7)
inactive: [1] 0.071 | vorinostat 0.137 | silmitasertib -0.052 | [2] 0.074 | entospletinib 0.03

FEM1A (UniProt Q9BSK4)
inactive: [1] 0.104 | vorinostat 0.026 | silmitasertib 0.035 | entospletinib -0.011
